Reference: PubChem BioAssay AID590 (National Center for Advancing Translational Sciences (NCATS), 2007)
Screen size: about 59,000 compounds; about 6,500 (11%) were called active. Inconclusive results, whose numbers are uncertain, are shown with a selection of clear calls. Rule as the data show it: active = max dye-equivalent concentration above about 10 nM; inconclusive = mostly about 1.1 nM to 9.6 nM; inactive = weaker than that.

Assay: qHTS Assay for Spectroscopic Profiling in A350 Spectral Region
Settings: Compound autofluorescence, 340/450 nm, Alexa 350 dye-equivalents; hits give high values

Q: With `O=C(c1ccncc1)N1CCC2(CC1)CCN(c1ccccc1)CC2` as the compound, how does the max dye-equivalent concentration read?
A: The max dye-equivalent concentration was “inactive”.

Q: With `Cn1ccnc1SCCC#N` as the compound, how does the max dye-equivalent concentration read?
A: The max dye-equivalent concentration was inconclusive: 3.3 nM.

Q: Which max dye-equivalent concentration does the source give for `O=C(COc1cccc(NC(=O)c2ccco2)c1)c1ccccc1` here?
A: The max dye-equivalent concentration was “inactive”.

Q: With `CCSc1nnc(NC(=O)c2ccc(Br)s2)s1` as the compound, how does the max dye-equivalent concentration read?
A: The max dye-equivalent concentration was “inactive”.

Q: For `Cc1cccc(N(C(=O)CCC(=O)Nc2cc(C)on2)C(C(=O)NC2CCCC2)c2ccncc2)c1` (centres undefined), which max dye-equivalent concentration is on record?
A: The max dye-equivalent concentration was “inactive”.

Q: Which max dye-equivalent concentration does the source give for `CCCN1C2=C(C(=O)CCC2)C(c2ccc(O)c(Br)c2)C2=C1CCCC2=O` here?
A: Its max dye-equivalent concentration is active: 81 nM.

Q: For `CCc1cc2c(=O)c(-c3nc4ccccc4n3C)c(C)oc2c(CN2CCN(C)CC2)c1O`, which max dye-equivalent concentration is on record?
A: The max dye-equivalent concentration was active: 96 nM.

Q: For `COc1cc(OC)cc([C@H](CNc2ncnc3c2ncn3[C@@H]2O[C@@H](CO)[C@H](O)[C@@H]2O)c2ccccc2C)c1`, which max dye-equivalent concentration is on record?
A: The max dye-equivalent concentration was inconclusive: 6.2 nM.

Q: Which max dye-equivalent concentration does the source give for `CC[C@@H](C)[C@H](NS(=O)(=O)c1ccc(C)cc1)C(=O)N1CCC(C(=O)NCC(=O)O)CC1` here?
A: Its max dye-equivalent concentration is inconclusive: 2.9 nM.

Q: With `Cc1csc(OCc2ccc(C#N)cc2)n1` as the compound, how does the max dye-equivalent concentration read?
A: Its max dye-equivalent concentration is active: 10 nM.

Q: For `CCCCCCCCCCC/C=C\C(C)(C)/C=C\CCCC(=O)O`, which max dye-equivalent concentration is on record?
A: Its max dye-equivalent concentration is “inactive”.

Q: For `CCOC(=O)CNC(=O)CSc1nc2nc(C)c(Br)cc2[nH]1`, which max dye-equivalent concentration is on record?
A: Its max dye-equivalent concentration is inconclusive: 1.3 nM.

Q: Which max dye-equivalent concentration does the source give for `CCCC(=O)c1cc2ccccc2oc1=O` here?
A: Its max dye-equivalent concentration is inconclusive: 3.4 nM.

Q: With `CCN(CC)S(=O)(=O)N1CCC(C(=O)NCC2COc3ccccc3O2)CC1` (centres undefined) as the compound, how does the max dye-equivalent concentration read?
A: Its max dye-equivalent concentration is inconclusive: 2.3 nM.

Q: Which max dye-equivalent concentration does the source give for `COc1ccc(CNC(=O)C2CCCN2C(=O)NC2CCCCC2)cc1` (centres undefined) here?
A: Its max dye-equivalent concentration is active: 400 nM.

Q: With `OC1CCCN(c2c3c(nc4cc(-c5cccc(Cl)c5)nn24)CCC3)C1` (centres undefined) as the compound, how does the max dye-equivalent concentration read?
A: Its max dye-equivalent concentration is active: 68 nM.

Q: With `O=C(COC(=O)CCc1c[nH]c(=O)[nH]1)Nc1ccccc1Cl` as the compound, how does the max dye-equivalent concentration read?
A: The max dye-equivalent concentration was inconclusive: 2.8 nM.

Q: For `COc1cc(OC)nc(NC(=O)CSc2nc3ccccc3[nH]2)n1`, which max dye-equivalent concentration is on record?
A: The max dye-equivalent concentration was inconclusive: 1.1 nM.

Q: With `Cc1ccc(OCc2nn3c(-c4ccco4)nnc3s2)cc1` as the compound, how does the max dye-equivalent concentration read?
A: Its max dye-equivalent concentration is inconclusive: 4.7 nM.

Q: For `CCN(CC)CCN1C(=O)C(=O)/C(=C(/O)c2cnn(-c3ccccc3)c2C)C1c1cccnc1` (centres undefined), which max dye-equivalent concentration is on record?
A: The max dye-equivalent concentration was inconclusive: 1.8 nM.

Q: For `CN(C=O)CP(=O)(O)CCN1CCCC1=O`, which max dye-equivalent concentration is on record?
A: Its max dye-equivalent concentration is active: 14 nM.

Q: Which max dye-equivalent concentration does the source give for `Nc1nnnn1N=C1CCCCC1` here?
A: Its max dye-equivalent concentration is inconclusive: 2.9 nM.

Q: For `Cc1ccc(S(=O)(=O)Nc2nc3ccccc3nc2NCc2ccco2)cc1C`, which max dye-equivalent concentration is on record?
A: The max dye-equivalent concentration was active: 140 nM.

Q: For `COCCN(C(=O)c1csnn1)C(C(=O)NC(C)(C)C)c1cccc(OC)c1` (centres undefined), which max dye-equivalent concentration is on record?
A: The max dye-equivalent concentration was “inactive”.

Q: Which max dye-equivalent concentration does the source give for `C[N+](C)([O-])CCC=C1c2ccccc2CCc2ccccc21` here?
A: Its max dye-equivalent concentration is “inactive”.

Q: For `NC(=O)C1CC(=O)N(c2ccc(OCC(=O)Nc3cccc(C(F)(F)F)c3)cc2)C1` (centres undefined), which max dye-equivalent concentration is on record?
A: Its max dye-equivalent concentration is inconclusive: 4.8 nM.

Q: Which max dye-equivalent concentration does the source give for `Cc1ccc(CNC(=O)CSc2ncccn2)cc1` here?
A: The max dye-equivalent concentration was inconclusive: 1.1 nM.

Q: Which max dye-equivalent concentration does the source give for `O=C(CN1CCOCC1)Nc1cccc(C(=O)Nc2cccc(C(F)(F)F)c2)c1` here?
A: The max dye-equivalent concentration was inconclusive: 1.3 nM.

Q: Which max dye-equivalent concentration does the source give for `CC(CCc1nc2ccccc2s1)(c1ccc(O)cc1)c1ccc(O)cc1` here?
A: Its max dye-equivalent concentration is “inactive”.
